From patent publication US20170349647A1
These are yes or no findings as the source states them, for the method shown.

Molecular target: recombinant nucleoprotein (available from ORLA) derived from influenza viruses subtype B (influenza virus type B)
Assay: sandwich ELISA, VHH coated, recombinant NP titrated (FIG. 4F)

B1: VHH antibody consisting of the amino acid sequence represented by SEQ ID NO: 08 (VHH)
VHH: QVQLVESGGGLVQAGGSLRLSCAASRTIFNPNVMGWYRQAPGKQRELVADISLSGSTNYADSVKGRFTISRDNAKNTMYLQMNSLKPEDTAVYYCNTNAISGAPGRYWGQGTQVTVSS
Which binding does the source give for B1 here?
Its binding is “no binding”.
